# PubChem BioAssay AID504467 (National Center for Advancing Translational Sciences (NCATS), 2011)
# Hit rate of the full screen: of about 330,000 compounds, about 7,700 (2.3%) were called active. Inconclusive means that the source gave no clear call. Such entries were picked first, then a sample of the others. Calls come from the whole dose curve; as a rule, active = well fitted inhibition curve with a large enough effect; inconclusive = small, poorly fitted or top-dose-only effect, or effect the other way; inactive = flat fitted curve, though single readings scatter. A potency beside an inconclusive call is a rough fit, not a confirmed value.
# Experiment: qHTS screen for small molecules that inhibit ELG1-dependent DNA repair in human embryonic kidney (HEK293T) cells expressing luciferase-tagged ELG1; note: nearly all actives have a fitted effect of over 55% in size
# Conditions: HEK293T ELG1-luciferase reporter, luminescence, 16 h, DNA damage induced by 5-fluorouridine; series mostly up to 46.1 µM
# Procedure, shortened: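 Cells (2,000 per well) received 5-fluorouridine plus test compound or DMSO and were incubated 16 hr at 37 °C, 5% CO2. Luciferase activity was read by luminescence 30 min after ONE-Glo addition; signal suppression marked inhibition of damage-induced ELG1 function.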
# Potency is the fitted concentration of half-maximal effect.
row,Structure (SMILES),Potency
1,Cc1nc(CN(C)C(=O)c2ccccc2OC2CCN(S(C)(=O)=O)CC2)cs1,inactive
2,CCn1nnc2sc3c(c2c1=O)CCC(C)C3 (stereo unspecified),"inconclusive: 20.6 µM [activator, partial curve]"
3,CCOc1ccc(C2C(C(=O)OC)=CN(C(C)c3ccccc3)C=C2C(=O)OC)cc1 (stereo unspecified),inactive
4,CSc1ccc(CNc2ccc(C)cc2)cc1,"inconclusive: 25.9 µM [activator, single point]"
5,CCOC(=O)N1CCN(C(=O)c2cnn3c(C(F)(F)F)cc(-c4cccs4)nc23)CC1,active: 6.51 µM
6,Cc1ccc(NC(=O)C2C(=O)N(C)c3ccccc32)cc1 (stereo unspecified),"inconclusive: 23.1 µM [activator, partial curve, poor fit]"
7,CCOC(=O)Cc1csc(NC(=O)CN2CCOCC2)n1,inactive
8,CN1/C(=C\C(=O)C[n+]2ccc(C(=O)c3ccccc3)cc2)C(C)(C)c2ccccc21,"inconclusive: 18.3 µM [inhibitor, partial curve]"
9,Brc1cccc(OCCn2ccnc2)c1,inactive
10,O=C1SCCc2c1n(Cc1ccccc1)c1ccccc21,"inconclusive: 18.4 µM [activator, single point]"
11,O=S(=O)(c1ccc(C(F)(F)F)cc1)N1CCCN(c2ccc(C(F)(F)F)cn2)CC1,"inconclusive: 8.2 µM [inhibitor, single point]"
12,Cc1ccccc1NC(=O)C(=O)c1cn(C)c2ccccc12,"inconclusive: 2.31 µM [activator, partial curve]"
13,CN1CCN(c2ccccc2NC(=O)c2cc3c(s2)-c2ccccc2OC3)CC1,"inconclusive: 20.6 µM [inhibitor, single point]"
14,CNc1nnc(-c2ccc(OC)cc2)s1,"inconclusive: 11.6 µM [activator, partial curve]"
15,COc1ccc(-c2cc(C(=O)N3CCN(Cc4ccc5c(c4)OCO5)CC3)on2)cc1OC,"inconclusive: 29.1 µM [inhibitor, partial curve, poor fit]"
16,Cc1ccc(NC(NC(=O)c2cccs2)C(Cl)(Cl)Cl)cc1C (stereo unspecified),inactive
17,Cc1ccc(Nc2nc(C)cc(C)n2)c(Br)c1,"inconclusive: 18.4 µM [activator, single point]"
18,O=C(CCl)Nc1ccccc1Sc1ccccc1,inactive
19,O=C(Nc1cccc(F)c1)NC1CCCCC1,"inconclusive: 16.4 µM [activator, single point]"
20,COc1ccc(Cc2noc(CN(C)CC3(N4CCOCC4)CCCCC3)n2)cc1OC,"inconclusive: 32.6 µM [inhibitor, single point]"
21,O=C(COC(=O)C1CC1)NCc1ccccc1,"inconclusive: 3.66 µM [activator, partial curve, poor fit]"

# Looked up one by one from the entries so far (2):
row,Structure (SMILES),Potency
11,O=S(=O)(c1ccc(C(F)(F)F)cc1)N1CCCN(c2ccc(C(F)(F)F)cn2)CC1,"inconclusive: 8.2 µM [inhibitor, single point]"
5,CCOC(=O)N1CCN(C(=O)c2cnn3c(C(F)(F)F)cc(-c4cccs4)nc23)CC1,active: 6.51 µM
